Results reported in patent US8912202B2, “N-(benzimimdazol-2-yl)-cyclopropane carboxamides as lysophosphatidic acid antagonists” (Merck Patent GmbH, priority 2011, dated 2014).
The match of structure and compound is tentative.

Chains of the proteins cited; added tags and fusions are not shown.
UniProt Q9HBW0, whole entry: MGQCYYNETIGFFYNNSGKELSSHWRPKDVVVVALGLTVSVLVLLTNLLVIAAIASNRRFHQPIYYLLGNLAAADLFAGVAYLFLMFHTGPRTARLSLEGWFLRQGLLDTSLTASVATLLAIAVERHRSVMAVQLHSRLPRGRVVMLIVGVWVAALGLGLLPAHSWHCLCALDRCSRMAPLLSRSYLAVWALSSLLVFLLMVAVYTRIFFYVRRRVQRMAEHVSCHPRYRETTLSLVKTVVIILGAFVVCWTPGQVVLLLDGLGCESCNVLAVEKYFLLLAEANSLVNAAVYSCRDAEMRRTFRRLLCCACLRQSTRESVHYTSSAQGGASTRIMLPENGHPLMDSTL

Target: LPA2R (Homo sapiens, UniProt Q9HBW0)
Assay: LPA2R-Calciumflux assay (FLIPR, intracellular calcium mobilisation after LPA)
Conditions: read-out: IC50 (LPA2R); U2OS cells recombinant expressing LPA2R; antagonism of LPA-induced calcium flux; racemate of the two trans enantiomers unless marked enantiomer
From the text: The assay detects intra cellular calcium which is generated by cells upon activation of the LPA2 receptor by its ligand LPA. This transient calcium mobilization can be monitored using a commercial calcium detection kit (e.g. from Molecular Devices). The main component of such a kit is a dye, which becomes fluorescent when calcium is present—a transient fluorescence signal after addition of a ligand to a test well are the result. Readers like the FLIPR (Molecular Devices) can be used to monitor such transient “Ca-flux” signals.
The signals are calculated according to peak maximum minus base line.
Compounds which are antagonists of LPA lead to a decreased mobilisation of intracellular calcium and thus to a lower signal. The assay is performed in microplates (384 wells per plate).
LPA2R-Calciumflux Assay Protocol
The assay is run according to the following procedure:
50 uL seed cells (10000 cells/well in DMEM buffer)
• Incubate 24 h at 37° C., 10% CO2 • aspirate medium 50 uL add calcium dye 1×HBSS/HEPES buffer • incubate 1 h at 37° C. (“loading”) • equilibrate 10 min at RT 5 uL add compounds in HEPES buffer • shake 10 sec. at 1000 rpm • incubate 15 min at RT 20 uL add LPA (in the FLIPR Tetra) in Krebs-buffer/BSA & measurement
The cells are seeded in DMEM buffer (DMEM, 10% FCS, 10 mM HEPES, 1% Pen/Strep). […]

IC50: < 10 nM
SMILES: O=C(Nc1nc2cc(Cl)cnc2[nH]1)[C@@H]1C[C@H]1c1ccccc1 (relative stereo)
